The values that follow are results of earlier work, collected in patent US20070021438A1, “Itraconazole solution” (priority 2003, published 2007).

SMILES strings stand for the structures.

On to `CCC(C)n1ncn(-c2ccc(N3CCN(c4ccc(OCC5COC(Cn6cncn6)(c6ccc(Cl)cc6Cl)O5)cc4)CC3)cc2)c1=O` (stereo not shown) [Itraconazole], for which the solubility in water entry is given as “practically insoluble”.
